No constants are given. Whether binding was seen depends on the method and setting. In cells and extracts the contact can be indirect. Some results given as binding are weak or reduced against the parent protein; the word gives no strength.
Molecular target: HA-tagged wild-type MAVS (human) (UniProt Q7Z434)
Test: co-IP

Sequences of proteins named here, by UniProt entry; tags and fusion partners are left off.
UniProt Q7Z434: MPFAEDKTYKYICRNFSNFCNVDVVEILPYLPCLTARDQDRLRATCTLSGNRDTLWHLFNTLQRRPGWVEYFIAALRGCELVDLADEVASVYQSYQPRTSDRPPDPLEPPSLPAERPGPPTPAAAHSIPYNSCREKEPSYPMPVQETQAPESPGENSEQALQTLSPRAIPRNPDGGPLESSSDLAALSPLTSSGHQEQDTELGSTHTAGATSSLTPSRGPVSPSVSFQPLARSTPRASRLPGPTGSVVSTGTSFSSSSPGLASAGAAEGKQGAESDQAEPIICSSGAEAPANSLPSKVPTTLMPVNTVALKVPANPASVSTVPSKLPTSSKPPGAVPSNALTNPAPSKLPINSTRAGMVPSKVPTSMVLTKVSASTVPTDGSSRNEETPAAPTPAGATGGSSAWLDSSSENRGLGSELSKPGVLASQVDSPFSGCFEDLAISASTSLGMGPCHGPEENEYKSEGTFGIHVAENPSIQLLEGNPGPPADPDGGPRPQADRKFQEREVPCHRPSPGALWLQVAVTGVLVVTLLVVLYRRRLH
UniProt P03496: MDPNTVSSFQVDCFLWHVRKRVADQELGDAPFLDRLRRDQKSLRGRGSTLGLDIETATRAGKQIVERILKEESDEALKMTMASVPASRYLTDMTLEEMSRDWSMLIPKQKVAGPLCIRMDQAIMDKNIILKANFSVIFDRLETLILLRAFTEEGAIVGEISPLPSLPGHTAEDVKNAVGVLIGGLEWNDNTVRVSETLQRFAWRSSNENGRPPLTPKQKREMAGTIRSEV

## wild-type NS1 (pCAGGS-NS1) (from UniProt P03496 1-230)
  binding: binds

From publication PMC8537625
